Experimental data reported in article doi:10.64898/2025.12.15.694336.
No constants are given. Whether binding was seen depends on the method and setting. Binding seen in cells or lysates may run through a third protein. Some binding calls cover weakened binding; strength is not graded here. For some of these results: Where a sequence is shown, tags or fusion partners need not be part of it.

Amino acid sequences for entries named in this document (tags omitted). Residues count along the entry.
UniProt P11021, residues 19-654: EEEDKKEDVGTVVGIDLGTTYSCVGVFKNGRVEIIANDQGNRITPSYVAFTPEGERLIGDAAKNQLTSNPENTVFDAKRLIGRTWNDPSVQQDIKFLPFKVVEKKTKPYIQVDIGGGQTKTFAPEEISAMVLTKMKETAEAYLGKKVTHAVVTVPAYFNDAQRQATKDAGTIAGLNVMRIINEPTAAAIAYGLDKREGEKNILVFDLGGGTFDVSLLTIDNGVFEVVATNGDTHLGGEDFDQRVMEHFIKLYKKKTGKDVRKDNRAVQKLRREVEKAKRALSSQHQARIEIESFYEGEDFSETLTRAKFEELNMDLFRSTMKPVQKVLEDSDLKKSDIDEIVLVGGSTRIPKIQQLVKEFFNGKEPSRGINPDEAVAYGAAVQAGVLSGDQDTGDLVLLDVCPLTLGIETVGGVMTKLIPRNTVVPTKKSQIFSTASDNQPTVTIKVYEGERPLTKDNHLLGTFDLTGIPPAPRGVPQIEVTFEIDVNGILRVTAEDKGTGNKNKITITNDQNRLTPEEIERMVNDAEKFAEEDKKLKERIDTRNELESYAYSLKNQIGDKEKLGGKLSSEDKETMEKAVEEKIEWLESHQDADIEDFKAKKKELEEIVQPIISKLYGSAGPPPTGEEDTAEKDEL
UniProt P20163, residues 18-657: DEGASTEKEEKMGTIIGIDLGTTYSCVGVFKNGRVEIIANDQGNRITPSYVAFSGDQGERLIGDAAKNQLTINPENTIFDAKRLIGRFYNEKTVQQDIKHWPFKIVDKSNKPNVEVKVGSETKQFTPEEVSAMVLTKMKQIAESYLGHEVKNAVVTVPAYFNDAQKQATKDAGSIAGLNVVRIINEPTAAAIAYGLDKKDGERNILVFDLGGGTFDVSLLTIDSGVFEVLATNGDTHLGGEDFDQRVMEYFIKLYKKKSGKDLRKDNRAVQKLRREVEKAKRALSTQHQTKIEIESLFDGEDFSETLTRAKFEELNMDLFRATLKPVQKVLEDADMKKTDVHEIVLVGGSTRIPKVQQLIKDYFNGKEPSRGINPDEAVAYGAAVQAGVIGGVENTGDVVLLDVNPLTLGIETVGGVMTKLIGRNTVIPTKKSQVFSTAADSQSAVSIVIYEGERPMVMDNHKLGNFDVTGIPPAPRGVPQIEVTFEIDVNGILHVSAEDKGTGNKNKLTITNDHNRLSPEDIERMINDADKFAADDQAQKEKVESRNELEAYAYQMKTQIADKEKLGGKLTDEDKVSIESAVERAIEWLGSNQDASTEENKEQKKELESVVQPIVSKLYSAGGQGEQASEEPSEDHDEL
UniProt Q9Y282: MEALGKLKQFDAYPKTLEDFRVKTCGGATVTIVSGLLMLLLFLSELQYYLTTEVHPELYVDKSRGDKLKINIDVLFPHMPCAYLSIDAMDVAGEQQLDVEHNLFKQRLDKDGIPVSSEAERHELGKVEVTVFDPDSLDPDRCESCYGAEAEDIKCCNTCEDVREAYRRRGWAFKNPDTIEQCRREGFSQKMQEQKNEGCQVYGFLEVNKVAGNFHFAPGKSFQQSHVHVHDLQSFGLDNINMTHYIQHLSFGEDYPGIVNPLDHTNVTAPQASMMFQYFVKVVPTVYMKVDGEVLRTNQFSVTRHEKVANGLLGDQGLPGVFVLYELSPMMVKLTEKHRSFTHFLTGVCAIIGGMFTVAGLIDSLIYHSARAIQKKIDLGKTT

Key:
Assay in all cases: co-IP
UNC-9::GFP (C. elegans) = target: T1, UNC-9::GFP (C. elegans) (UniProt O01393)
T1 sequence: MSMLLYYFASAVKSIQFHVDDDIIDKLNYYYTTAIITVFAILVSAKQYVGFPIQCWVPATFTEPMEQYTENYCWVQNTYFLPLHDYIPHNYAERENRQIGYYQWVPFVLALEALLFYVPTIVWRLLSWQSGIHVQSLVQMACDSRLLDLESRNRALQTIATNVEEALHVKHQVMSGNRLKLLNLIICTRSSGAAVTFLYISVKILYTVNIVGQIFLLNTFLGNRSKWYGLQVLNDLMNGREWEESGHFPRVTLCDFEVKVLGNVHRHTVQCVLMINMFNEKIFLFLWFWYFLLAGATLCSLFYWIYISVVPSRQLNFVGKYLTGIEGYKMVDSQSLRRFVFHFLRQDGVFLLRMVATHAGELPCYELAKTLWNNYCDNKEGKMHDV

human BiP (human) = human BiP (human) (UniProt P11021)
HSP-4::Myc (C. elegans) = HSP-4::Myc (C. elegans) (UniProt P20163)

## HSP-4::Myc (from UniProt P20163 18-657)
UNC-9::GFP (C. elegans)
  binding: binds

## human ERGIC3 (from UniProt Q9Y282 1-383)
Human BiP (human)
  binding: binds

B1: human ERGIC2 (protein, UniProt Q96RQ1 1-377)
chain: MRRLNRKKTLSLVKELDAFPKVPESYVETSASGGTVSLIAFTTMALLTIMEFSVYQDTWMKYEYEVDKDFSSKLRINIDITVAMKCQYVGADVLDLAETMVASADGLVYEPTVFDLSPQQKEWQRMLQLIQSRLQEEHSLQDVIFKSAFKSTSTALPPREDDSSQSPNACRIHGHLYVNKVAGNFHITVGKAIPHPRGHAHLAALVNHESYNFSHRIDHLSFGELVPAIINPLDGTEKIAIDHNQMFQYFITVVPTKLHTYKISADTHQFSVTERERIINHAAGSHGVSGIFMKYDLSSLMVTVTEEHMPFWQFFVRLCGIVGGIFSTTGMLHGIGKFIVEIICCRFRLGSYKPVNSVPFEDGHTDNHLPLLENNTH
Human BiP (human)
  binding: binds

B2: IRE-1::HA (protein, UniProt Q09499 22-967)
chain: ISTPGFRNDHESIGDDEEKTSSTILVSTIDGRLRALDSETGEIKWTLQEEPVLRSPSAVKQGFTFLPNPLDGSLYVLKNSSLKKLPFNIPQLVHASPCKGNDGILYAGSKKDVWFGIDPKTGLKVETLSSASADRICPANQKQTIFLGRTEYRVSMFDEKNRGKTWNATFNDYSAHLLPEVNTWPFKHYASSSHGYILTFDRETGEMRWEQDLKQPVVALYLLRDDGLHKLPFEVMGKETMENVAKNIFTVDQWPTVLGVNAADPQTTSLTNQFFPALFVGESSFGLYAIEALVDHQTITYSPKLLGPPLLEGPAPIALTEMEKEEYLPPRRPIIRNIPPSITHKTSDGEYLLLGYHDRPMMTMATIIPTRYPVPGPHKAIGSTIERPPPQLLGPVEPQKHEDTSFILLLLNNHPIPFYATLVTMFALLLTVIWQCGRQWDQQKSTSRMDSFEIVNNPGESRSAQTSKQSNRGSFGWANRKIEIPEGWMAVGSKLMYSPSDILGTGCEGTVVYRGTFDGREVAVKRVVSEFVKFAHREADLLRESDTHPHVIRYFCMESDSQFRYLALELCIASLNDYVEQKEVQQNVTIALRDIMKQATDGLAHLHASKIVHRDMKPQNVLITMASQRGEMRAVISDFGLCKRVQPGKNSISRGIASGLAGTDGWIAPEVLISASTSYPVDIFSLGCIFYYVLTSGTHPFGKSLHRQANIVNGEYTLNKLADLDDWSLADDLISSMLNVEPLHRLTADAVLNHPFFWTSEKRLAYFSDVSDRVEKEEDNSPVVRRIETDARIVVCGGWREKICDALKEDLRKFRTYKSFSVRDLLRAMRNKKHHYRELPEDVRQSLGDIPDQFLHYFTSRFPRLLLHVYKATEYCSGEAVFKRYYSDDVRARMYPIVEEEERVRKKIKEEMANEVWARAPKPVEQRTPLKLDKRNIKKKSNPNTD
HSP-4::Myc (C. elegans)
  binding: binds
